The text below walks through data of article PMC7819943, “Rice protein-binding microarrays: a tool to detect cis-acting elements near promoter regions in rice”.

Sequences of proteins named here, by UniProt entry; tags and fusion partners are left off.
UniProt Q0JBA9, entry or part of it: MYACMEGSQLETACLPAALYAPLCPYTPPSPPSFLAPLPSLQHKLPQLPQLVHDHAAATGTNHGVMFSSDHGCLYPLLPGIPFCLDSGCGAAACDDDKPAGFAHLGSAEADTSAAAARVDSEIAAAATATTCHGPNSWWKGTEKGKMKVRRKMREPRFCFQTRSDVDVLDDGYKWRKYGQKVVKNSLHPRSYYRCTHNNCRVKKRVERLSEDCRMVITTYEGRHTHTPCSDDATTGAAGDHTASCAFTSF

The list shows a part of the results.

The assay concerns the target OsWRKY34 (Oryza sativa, UniProt Q0JBA9 1-250). Kind of assay: protein-binding microarray (RPBM); PBS, 2% BSA, 51.3 ng/ul salmon testes DNA, 50 uM zinc acetate, 200 nM TF, 25 C, 1 h; high values mean tight binding. Particulars: protein: recombinant; tags: N-terminal polyhistidine and DsRed monomer fusion (pET32a); label: CyDye5-dUTP incorporated in the synthesized complementary strand; 3' TTTTT single-stranded linker to array surface; dsDNA, one strand shown. In a few lines: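 Transcription factors were each fused at the N-terminus to a polyhistidine tag plus DsRed and expressed in E. coli BL21-CodonPlus before Ni–NTA purification. Binding to a double-stranded custom Agilent array was carried out with 200 nM protein at 25 °C for 1 h in PBS, 2% BSA, salmon testes DNA and 50 µM zinc acetate. The binding signal is per-feature fluorescence intensity, in arbitrary units, on an Axon 4000B scanner.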
“CTACAACTTCCTCCGCCGCAACTGCCGCGGCCCCGACGTCCGGAGTCACCTAGTGCAG”: the binding signal was 8220 fluorescence intensity (a.u.).
With “CTCTCCCACTTGCACCACGGAATCTCACCCATCCACGTGTCGGAGTCACCTAGTGCAG”, the binding signal was 9080 fluorescence intensity (a.u.).
On to “GCTGTTTCGTCGTTTCCGCGCGGTGGAGCCCACCTGCCCACGGAGTCACCTAGTGCAG”, for which the binding signal is 11700 fluorescence intensity (a.u.).
The result for “ATGCGAGCACCCGAACGTCTTCACATATATCGTCTGCAACCGGAGTCACCTAGTGCAG” reads 8270 fluorescence intensity (a.u.); that for “TCCCAAACCCCGCGCCGCCTCTTACCGCTTCGCGTCAGCTCGGAGTCACCTAGTGCAG”, 8490 fluorescence intensity (a.u.); that for “ATGCCAGGACACACGAAATCTCTTTACCATCCGATTACAGCGGAGTCACCTAGTGCAG”, 8340 fluorescence intensity (a.u.).
Consider “AGACTTTATTTTTTCCCTGGGCTAAGGACTAGTCCCATATCGGAGTCACCTAGTGCAG”, for which the binding signal is 8980 fluorescence intensity (a.u.).
In the case of “CACCACCACCACCTCCTCCTTCCAAAGATTCCTTCTCTTCCGGAGTCACCTAGTGCAG”, the binding signal was 9970 fluorescence intensity (a.u.).
For the sequence “AGTTTGGCCGCATTGGCGATCTTTCCTCTCTTGTACTACTCGGAGTCACCTAGTGCAG”, the binding signal was 9980 fluorescence intensity (a.u.).
For “TCTGTTATGCCATCTCAAAGCTTGATTGACCTTCACCGGCCGGAGTCACCTAGTGCAG”, the binding signal was 8960 fluorescence intensity (a.u.).
Turning to “TTTGTGCTGCGCATTCGCGTCAACACTCCCATTTATTATGCGGAGTCACCTAGTGCAG”, the binding signal was 8250 fluorescence intensity (a.u.).
For the sequence “CCAAAATTGACTTTTATTCGTGTGCCAAATTTTTTTTTTACGGAGTCACCTAGTGCAG”, the binding signal was 8520 fluorescence intensity (a.u.).
Regarding “ACCTGACGGCCCAACCAGGCGACCGCTCTCTCCGTTTTCCCGGAGTCACCTAGTGCAG”, the binding signal was 8070 fluorescence intensity (a.u.).
“CTATAATTCACCAACTCACTCTTACCCCTACATTACTCATCGGAGTCACCTAGTGCAG”: the binding signal was 9360 fluorescence intensity (a.u.).
In the case of “TTCTCTTGGGGTTTGGCCGGTTGGGGAGTGAGCCGTTTGGCGGAGTCACCTAGTGCAG”, the binding signal is 11000 fluorescence intensity (a.u.).
Take “GACTCTCTTGTATTGTCCATATTCATATATATATATGTTACGGAGTCACCTAGTGCAG”: the binding signal was 8140 fluorescence intensity (a.u.).
In the case of “GGACAAAGTTCACATGCTTACTATTCATTCTCCTACGTATCGGAGTCACCTAGTGCAG”, the binding signal is 10100 fluorescence intensity (a.u.).
Regarding “ACAAACTCTGCTTTCCGTGTCTAACATTTGACCGTCCGTCCGGAGTCACCTAGTGCAG”, the binding signal was 8960 fluorescence intensity (a.u.).
For the sequence “TCCACGCTCGCCGACATCCCGGACCTCCACACCAAGTCCCCGGAGTCACCTAGTGCAG”, the binding signal is 8020 fluorescence intensity (a.u.).
With “CCCTCATCGTGTCGATGCGTCGCTGCCTCGCTTTACCACTCGGAGTCACCTAGTGCAG”, the binding signal is 8210 fluorescence intensity (a.u.).
The same measure for “TTTAATAAATTCATCCCGCGGTTTCCAGGCAAGTTATTAACGGAGTCACCTAGTGCAG”: 8680 fluorescence intensity (a.u.); for “AGTAAAAAAACAACCATACTGTCTCGTCCTGCTCGTCTAACGGAGTCACCTAGTGCAG”: 9060 fluorescence intensity (a.u.).
On to “ATACGGGATCCTAGGGTAAAACTTGTGTATGGGATGTGTCCGGAGTCACCTAGTGCAG”, for which the binding signal was 8260 fluorescence intensity (a.u.).
The result for “GATTGTCATTTTCCATGATGTTTCTCGTGATCAAACGGACCGGAGTCACCTAGTGCAG” reads 11900 fluorescence intensity (a.u.); that for “CCTCTGCTACGATTCCGCGAATAATGGTCCGTGACATATCCGGAGTCACCTAGTGCAG”, 8200 fluorescence intensity (a.u.).
Regarding “AATTGTTGGTTATCAGTTTCATGTTTCAATGGACACTATTCGGAGTCACCTAGTGCAG”, the binding signal is 8600 fluorescence intensity (a.u.).
As for “GGGCTTGCGATCGTGTTGTGTTGGGTTGGGTCTTGGGTTTCGGAGTCACCTAGTGCAG”, the binding signal was 29400 fluorescence intensity (a.u.).
Take “ACTATCTCGGTCTCAACATATAGCTATTTATGTCATTTTTCGGAGTCACCTAGTGCAG”: the binding signal is 12900 fluorescence intensity (a.u.).
The same measure for “CTTCTTGCTCACCGCCGCGGCGGCGGCGGCCGCCATCGTCCGGAGTCACCTAGTGCAG”: 8880 fluorescence intensity (a.u.).
As for “TGGAGTGGAGTTTCGATAGGTGTGGCGGGGAGGGAGGGAGCGGAGTCACCTAGTGCAG”, the binding signal was 19800 fluorescence intensity (a.u.).
With “TTGAATAATTGTGTTGATGTAATATGCTCTTGTATTGGGGCGGAGTCACCTAGTGCAG”, the binding signal was 8710 fluorescence intensity (a.u.).
The same measure for “GAGTATGGTAGATGGTGTCATGATCTCACGCCGTGTCTATCGGAGTCACCTAGTGCAG”: 9970 fluorescence intensity (a.u.).
The result for “CCAAAGCACCAATCATCTAGCTACTTCTATGCTTTCTTCACGGAGTCACCTAGTGCAG” reads 11600 fluorescence intensity (a.u.); that for “ACTTATCCATCATCAGATCATTTATGCCATGAACTCAAGACGGAGTCACCTAGTGCAG”, 9690 fluorescence intensity (a.u.).
The result for “CCTTTTTCTTTTCTTTGTTGTTGTGCAAATACTGTATAGTCGGAGTCACCTAGTGCAG” reads 10000 fluorescence intensity (a.u.); that for “TTTCTCTTTGCACCCTAGCCTCATGTTCTTCTTCTTCCTCCGGAGTCACCTAGTGCAG”, 8680 fluorescence intensity (a.u.); that for “CAGATGTCAGTGATGTTGTAGGGTCAGAGGGTAGGTTATTCGGAGTCACCTAGTGCAG”, 9240 fluorescence intensity (a.u.).
Regarding “TGCCGCTTGCGTAACTACTTAATTACCCGTATAGCCCATTCGGAGTCACCTAGTGCAG”, the binding signal is 9080 fluorescence intensity (a.u.).
Take “GCATTGTTTCTTCAGTCTACCTGTTGTCTCGTTGTATGCTCGGAGTCACCTAGTGCAG”: the binding signal is 9480 fluorescence intensity (a.u.).
Consider “AACGGTTGTGACTACCCTCAGTCCGTCGTCTAAGTCAAATCGGAGTCACCTAGTGCAG”, for which the binding signal was 8460 fluorescence intensity (a.u.).
For the sequence “GGCTTGAATAAAGGTGTGTTTGGTTGGGTGGATGGAGCATCGGAGTCACCTAGTGCAG”, the binding signal is 8270 fluorescence intensity (a.u.).
On to “GCACCGTATTTTTGTTTGAAATTATATTTTTCAGAGCTTTCGGAGTCACCTAGTGCAG”, for which the binding signal is 10100 fluorescence intensity (a.u.).
